# Reference: the supplement of paper PMC12889115
# The list shows a part of the results. These are raw signals, not scaled to a control.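 First-pass screen: polymyxin B was added at a level that permeabilizes the Salmonella outer membrane while sparing the inner membrane. DMSO wells, with and without polymyxin B, defined maximum growth. Because plates differed from one another, each plate's data were ranked separately and the compounds with the lowest OD600 were carried forward as hits.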
# Test system: Salmonella enterica serovar Typhimurium SL1344
# Experiment: bacterial growth OD600 after 18 h with compound and polymyxin B; higher = more bacterial growth (less inhibition)
# Conditions: 50 µM, Mueller-Hinton broth
Compound,bacterial growth OD600 (polymyxin B 0.75 µg/mL),bacterial growth OD600 (polymyxin B 1 µg/mL)
COC(=O)[C@@H](NC(=O)CCC1(Cc2ccc(F)cc2)CCC(=O)N1)c1ccccc1 (some centres undefined),0.804,–
COCc1ccc(C(=O)Nc2ccc(-c3nc(CNC(=O)c4cc(C)nc(C)n4)c(C)o3)cc2)o1,0.781,–
COc1cc(CN(C(=O)c2ccccc2C(F)(F)F)[C@H]2CCCCNC2=O)cc(OC)c1OCCc1ccsc1,0.745,–
COc1cc([C@@H]2C[C@H]3CN(C)C(=O)[C@]34CCCN24)ccc1F,0.793,–
CCOC(=O)C1(Cc2ccccc2F)CCCN(C(=O)Cn2nc(C)cc2C)C1 (centres undefined),–,0.962
COc1cccc(CN2CCN(Cc3ccccc3F)CC2CCO)c1 (centres undefined),–,0.797
COC(=O)CN(C)C(=O)c1ccc(OC2CCN(C3CCCC3)CC2)c(OC)c1,–,0.954
CCn1ccnc1CN(C)C(=O)c1cc(Cn2c(C)nc3ccccc32)[nH]n1,–,0.94
CSc1ccc(C(=O)N2CCC(C(Cc3ccccc3F)N(C)C(=O)c3ccoc3C)CC2)cc1 (centres undefined),0.003,–

# At a glance, some entries already given.
Compound,bacterial growth OD600 (polymyxin B 0.75 µg/mL),bacterial growth OD600 (polymyxin B 1 µg/mL)
COc1cccc(CN2CCN(Cc3ccccc3F)CC2CCO)c1 (centres undefined),–,0.797
COC(=O)CN(C)C(=O)c1ccc(OC2CCN(C3CCCC3)CC2)c(OC)c1,–,0.954
